Test results from patent US5128448A (Hoffman-La Roche Inc., priority 1990, dated 1992).
Non-standard residues stand in square brackets, D forms with d. Bta = N[C@@H](Cc1csc2ccccc12)C(=O)O

What was measured:
[1] = general procedure: Boc solid-phase peptide synthesis; BHA, MBHA, PAM or PAL resin; DCC/HOBt; conditions: for step yield: late stage modification step, monoammonium salt; for isolated yield / crude mass: whole synthesis; for crude mass: scale 0.41 mmol
[2] = general procedure: Boc solid-phase peptide synthesis; BHA resin; DCC/HOBt; conditions: whole synthesis, scale 0.41 mmol

Substance | step yield [1] | isolated yield [1] | also measured
Ac-Tyr(SO3 H)-Met-Gly-Trp-Met-Asp-(5,6,7,8-Tetrahydro-2-naphthyl)alanine-NH2 | 50% | – | –
Ac-Tyr(SO3 H)-Met-Gly-(2-Benzo[b]thiophenyl)alanine-Met-Asp-Phe-NH2 | 55% | – | –
Ac-Tyr-Met-Gly-Trp-Met-Asp-(D)-(2)Nal-NH2 | – | 19% | –
Ac-Tyr-Met-Gly-(2)Nal-Met-Asp-(2)Nal-NH2 | – | 15% | –
Ac-Tyr-Met-Gly-Trp-Met-Asp-Cyclooctylalanine-NH2 | – | 9% | –
Ac-Tyr-Met-Gly-Qua-Met-Asp-Phe-NH2 | – | 19% | –
Ac-Tyr(SO3 H)-Met-Gly-Trp-Met-Asp-(2-Adamantyl)alanine-NH2 | 56% | – | –
Ac-Tyr(SO3 H)-Met-Gly-(5,6,7,8-Tetrahydro-2-naphthyl)alanine-Met-Asp-Phe-NH2 | 50% | – | –
desamino-Phe(4-CH2 COOH)-Met-Gly-Trp-Met-Asp-cyclohexylalanine-NH2 | – | 11.4% | –
Ac-Tyr-Met-Gly-Trp-Met-Asp-(2-Adamantyl)alanine-NH2 | – | 24% | crude mass [1]: 700 mg
Ac-Tyr(SO3 H)-Met-Gly-Trp-Met-Asp-Dodecylalanine-NH2 | 45% | – | –
Desamino-Phe(4-CH2 COOH)-Met-Gly-Trp-Met-Asp-Cyclooctylalanine-NH2 | – | 6% | –
Ac-Tyr(SO3 H)-Met-Gly-(2)Nal-Met-Asp-(2)Nal-NH2 | 41% | – | –
Ac-Tyr(SO3 H)-Met-Gly-Trp-Met-Asp-Cyclohexylmethylalanine-NH2 | 33% | – | –
Ac-Tyr(SO3 H)-Met-Gly-Trp-Met-Asp-tert-butylalanine-NH2 | 38% | – | –
Ac-YMG[Bta]MDF-NH2 | – | 18% | –
Ac-Tyr-Met-Gly-Tna-Met-Asp-Phe-NH2 | – | 12% | crude mass [1]: 460 mg
Ac-Tyr(SO3 H)-Met-Gly-Trp-Met-Asp-(D)-(2)Nal-NH2 | 56% | – | –

Substance | step yield [1] | isolated yield [1] | also measured
Ac-Tyr-Met-Gly-Trp-Met-Asp-tert-butyl-Ala-NH2 | – | 16% | –
Ac-Tyr-Met-Gly-Trp-Met-Asp-Cyclopentylalanine-NH2 | – | 12% | –
Ac-Tyr-Met-Gly-Trp-Met-Asp-Doa-NH2 | – | 2% | crude mass [2]: 150 mg
Ac-Tyr-Met-Gly-Trp-Met-Asp-Tna-NH2 | – | 15% | crude mass [2]: 540 mg
Ac-Tyr-Met-Gly-Trp-Met-Asp-(2)Nal-NH2 | – | 28% | –
Ac-Tyr-Met-Gly-Trp-Met-Asp-Cyclohexylmethylalanine-NH2 | – | 14% | crude mass [1]: 375 mg
Ac-Tyr-Met-Gly-Trp-Met-Asp-Cha(4-tBu)-NH2 | – | 6% | crude mass [2]: 306 mg
Ac-Tyr(SO3 H)-Met-Gly-(2)Nal-Met-Asp-Cyclooctylalanine-NH2 | 75% | – | –
Ac-Tyr(SO3 H)-Met-Gly-Trp-Met-Asp-(D)-Cyclohexylalanine-NH2 | 65% | – | –
Ac-Tyr(SO3 H)-Met-Gly-Trp-Met-Asp-(2)Nal-NH2 | 33% | – | –
Ac-Tyr(SO3 H)-Met-Gly-(3-Quinolinyl)alanine-Met-Asp-Phe-NH2 | 38% | – | –
Ac-Tyr-Met-Gly-(2)Nal-Met-Asp-Cyclooctylalanine-NH2 | – | 11% | crude mass [1]: 323.0 mg
Ac-Tyr(SO3 H)-Met-Gly-Trp-Met-Asp-cyclopentylalanine-NH2 | 62% | – | –
Ac-Tyr-Met-Gly-Trp-Met-Asp-(D)-cyclohexylalanine-NH2 | – | 12% | crude mass [1]: 315 mg
Ac-Tyr(SO3 H)-Met-Gly-Trp-Met-Asp-Cyclooctylalanine-NH2 | 40% | – | –
Ac-Tyr-Met-Gly-(2)Nal-Met-Asp-Cyclohexylalanine-NH2 | – | 11% | –
Ac-Tyr(SO3 H)-Met-Gly-Trp-Met-Asp-trans-[4-(1,1-Dimethylethyl)cyclohexyl]alanine-NH.s ub.2 | 50% | – | –
